Laboratory results taken from article PMC3694890.
No constants are given. Whether binding was seen depends on the method and setting. Some results given as binding are weak or reduced against the parent protein; the word gives no strength.

Chains of the proteins cited; added tags and fusions are not shown. Lines headed by an entry give the natural chain unless they say otherwise; changes in a name come on top.
UniProt O14974: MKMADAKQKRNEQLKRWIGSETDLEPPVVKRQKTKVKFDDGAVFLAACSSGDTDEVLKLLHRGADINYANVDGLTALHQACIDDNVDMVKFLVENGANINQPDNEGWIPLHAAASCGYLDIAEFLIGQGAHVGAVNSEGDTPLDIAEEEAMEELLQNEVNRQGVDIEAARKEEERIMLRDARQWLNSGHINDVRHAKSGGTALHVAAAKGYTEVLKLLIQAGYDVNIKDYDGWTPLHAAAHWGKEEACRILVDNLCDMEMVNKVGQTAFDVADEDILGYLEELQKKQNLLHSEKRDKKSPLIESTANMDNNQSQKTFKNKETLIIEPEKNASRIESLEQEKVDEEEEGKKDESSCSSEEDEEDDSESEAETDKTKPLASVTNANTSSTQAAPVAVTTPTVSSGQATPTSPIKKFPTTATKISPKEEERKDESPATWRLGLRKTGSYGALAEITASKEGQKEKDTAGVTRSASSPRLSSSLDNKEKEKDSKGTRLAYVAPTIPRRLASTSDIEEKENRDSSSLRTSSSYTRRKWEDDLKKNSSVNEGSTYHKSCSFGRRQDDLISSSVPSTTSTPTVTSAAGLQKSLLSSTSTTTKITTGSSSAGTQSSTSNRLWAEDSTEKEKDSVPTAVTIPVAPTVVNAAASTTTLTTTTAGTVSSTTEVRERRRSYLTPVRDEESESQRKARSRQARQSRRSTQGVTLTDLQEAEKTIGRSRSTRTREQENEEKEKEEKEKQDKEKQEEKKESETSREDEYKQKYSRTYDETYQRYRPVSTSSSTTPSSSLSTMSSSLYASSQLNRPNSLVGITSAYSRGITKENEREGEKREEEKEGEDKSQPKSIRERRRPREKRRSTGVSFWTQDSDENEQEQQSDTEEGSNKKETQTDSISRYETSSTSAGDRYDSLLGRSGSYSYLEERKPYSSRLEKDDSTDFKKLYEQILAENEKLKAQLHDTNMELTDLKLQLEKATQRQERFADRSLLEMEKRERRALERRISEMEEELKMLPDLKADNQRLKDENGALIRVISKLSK
UniProt P62993: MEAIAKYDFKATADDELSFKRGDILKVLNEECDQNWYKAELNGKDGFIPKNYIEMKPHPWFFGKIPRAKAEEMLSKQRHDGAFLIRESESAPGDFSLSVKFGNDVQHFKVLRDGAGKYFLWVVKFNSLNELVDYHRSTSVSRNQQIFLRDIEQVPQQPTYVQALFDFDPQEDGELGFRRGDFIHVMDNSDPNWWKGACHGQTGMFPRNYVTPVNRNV

Key:
Experiment in all cases: peptide or protein array; total protein of cell lysate (1 mg in 1 mL) of MCF10A, MCF7, T47D or MDA-MB231 over a chip with 160 pY peptide probes (10 replicates, alanine controls), overnight at 4°C; bound GRB2 detected with rabbit anti-GRB2 and Alexa 647 secondary antibody; only the target purified
[1] = target: T1, ETV6_314 tyrosine phosphopeptide probe (human)
T1 sequence (peptide, phosphotyrosine at the N-terminus (Y314)): YMNHIM

[2] = target: T2, FLT3_969 tyrosine phosphopeptide probe (human)
T2 sequence (peptide, phosphotyrosine at the N-terminus (Y969)): YQNRRP

[3] = target: T3, XPO7_669 tyrosine phosphopeptide probe (human)
T3 sequence (peptide, phosphotyrosine at the N-terminus (Y669)): YTALGR

[4] = target: T4, PTPN11_584 tyrosine phosphopeptide probe (human)
T4 sequence (peptide, phosphotyrosine at the N-terminus (Y584)): YENVGL

[5] = target: T5, CSF3R_787 tyrosine phosphopeptide probe (human)
T5 sequence (peptide, phosphotyrosine at the N-terminus (Y787)): YENLWF

[6] = target: T6, PTPN11_546 tyrosine phosphopeptide probe (human)
T6 sequence (peptide, phosphotyrosine at the N-terminus (Y546)): YTNIKY

[7] = target: T7, FLT3_955 tyrosine phosphopeptide probe (human)
T7 sequence (peptide, phosphotyrosine at the N-terminus (Y955)): YQNVDG

[8] = target: T8, DYST_959 tyrosine phosphopeptide probe (human)
T8 sequence (peptide, phosphotyrosine at the N-terminus (Y959)): YQNVLT

[9] = target: MYPT1_68 tyrosine phosphopeptide probe (UniProt O14974)
[10] = target: T9, PILRA_246 tyrosine phosphopeptide probe (human)
T9 sequence (peptide, phosphotyrosine at the N-terminus (Y246)): YENIRN

[11] = target: T10, SOS1_974 tyrosine phosphopeptide probe (human)
T10 sequence (peptide, phosphotyrosine at the N-terminus (Y974)): YQNQPY

[12] = target: T11, NTAL_95 tyrosine phosphopeptide probe (human)
T11 sequence (peptide, phosphotyrosine at the N-terminus (Y95)): YENVLI

[13] = target: T12, PDGFRB_716 tyrosine phosphopeptide probe (human)
T12 sequence (peptide, phosphotyrosine at the N-terminus (Y716)): YSNALP

[14] = target: T13, LAX1_373 tyrosine phosphopeptide probe (human)
T13 sequence (peptide, phosphotyrosine at the N-terminus (Y373)): YENVLT

[15] = target: T14, SHIP1_556 tyrosine phosphopeptide probe (human)
T14 sequence (peptide, phosphotyrosine at the N-terminus (Y556)): YMNILR

[16] = target: T15, LAT_200 tyrosine phosphopeptide probe (human)
T15 sequence (peptide, phosphotyrosine at the N-terminus (Y200)): YVNVPE

- binding [1]: binds
- binding [2]: binds
- binding [3]: binds
- binding [4]: binds
- binding [5]: binds
- binding [6]: binds
- binding [7]: binds
- binding [8]: binds
- binding [9]: binds
- binding [10]: binds
- binding [11]: binds
- binding [12]: binds
- binding [13]: binds
- binding [14]: binds
- binding [15]: binds
- binding [16]: binds
Substance: GRB2 (endogenous, from cell lysates) (from UniProt P62993 1-217)
